In PMC5575297, “Interaction of lipopolysaccharides at intermolecular sites of the periplasmic Lpt transport assembly” (Scientific Reports, 2017):
No constants are given. Whether binding was seen depends on the method and setting. Some results given as binding are weak or reduced against the parent protein; the word gives no strength.

T1: LptC construct lacking the 23 residues long N-terminal transmembrane domain (E. coli), P0ADV9
T1 chain: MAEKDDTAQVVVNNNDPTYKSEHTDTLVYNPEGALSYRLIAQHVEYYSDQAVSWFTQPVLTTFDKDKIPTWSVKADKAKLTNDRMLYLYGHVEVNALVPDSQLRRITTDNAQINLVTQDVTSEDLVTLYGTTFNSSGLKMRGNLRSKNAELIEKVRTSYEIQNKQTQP

B1: LptC construct lacking the 23 residues long N-terminal transmembrane domain (domain or fragment, E. coli, UniProt P0ADV9 24-191, looked up)
chain: MAEKDDTAQVVVNNNDPTYKSEHTDTLVYNPEGALSYRLIAQHVEYYSDQAVSWFTQPVLTTFDKDKIPTWSVKADKAKLTNDRMLYLYGHVEVNALVPDSQLRRITTDNAQINLVTQDVTSEDLVTLYGTTFNSSGLKMRGNLRSKNAELIEKVRTSYEIQNKQTQP
notes: LptC, E. coli, lacking the first 23 residues (transmembrane domain); For NMR the protein was isotope-labelled (2H, 13C, 15N, or AILV methyl-labelled) or unlabelled; also called LptC dimer; source: E. coli M15 [prep4], pQESH plasmid, purified (HiTrap, S75 SEC)
B2: LptAm (monomeric E. coli LptA mutant, LptA Δ160-185) (domain or fragment, UniProt P0ADV1 28-159, looked up)
chain: VTGDTDQPIHIESDQQSLDMQGNVVTFTGNVIVTQGTIKINADKVVVTRPGGEQGKEVIDGYGKPATFYQMQDNGKPVEGHASQMHYELAKDFVVLTGNAYLQQVDSNIKGDKITYLVKEQKMQAFSDKGKR
notes: LptA, E. coli, residues 28-159; lacks the last C-terminal β-strand (Δ160-185); For NMR the protein was isotope-labelled (2H, 13C, 15N) or unlabelled; the purified protein is 28-159; also called monomeric LptA; C-terminally truncated LptA; source: E. coli BL21(DE3), pET21b, purified (HiTrap, S75 SEC)

Columns and labels:
[1] = molecular target: T1, LptC construct lacking the 23 residues …; assay: NMR spectroscopy; LptC alone, 45 °C, buffer B with 5% D2O; dimerisation told only in the discussion; both purified; conditions: remark: other sources report otherwise
[2] = molecular target: LptAm (monomeric E. coli LptA mutant, LptA Δ160-185) (E. coli) (UniProt P0ADV1); assay: SEC-MALS; 40 µl injected on Superdex S200 (10/300GL) in buffer B (50 mM sodium phosphate, 150 mM NaCl, pH 8) at 25 °C; proteins alone and LptC-LptAm mixtures (also with a two-times molar excess of LptAm); protein conjugate two-component analysis for the complex; both purified
[3] = molecular target: LptAm (monomeric E. coli LptA mutant, LptA Δ160-185) (E. coli) (UniProt P0ADV1); assay: SAXS; beamline BM29 (ESRF), 20 °C, NMR buffer with 0.5% w/v sucrose; LptAm 1.6 and 2.4 mg/ml, LptC 1, 2 and 3 mg/ml, LptAm:LptC 1:1 molar ratio at 3.6 and 5.4 mg/ml; extrapolated to zero dilution; both purified

| Binder | binding [1] | binding [2] | binding [3] |
| --- | --- | --- | --- |
| B1 | binds | – | – |
| B2 | – | no binding | no binding (tested: 1.6 and 2.4 mg/ml) |
